PubChem BioAssay AID602196, INSERM – 2012
Assay: 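Genes whose knock-down alters cisplatin killing of lung cancer cells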. Cell system: human A549 lung cancer cells. Reagents: siRNA pair against human genes. Duration: 48 h transfection before cisplatin; time from cisplatin to read-out not stated. Treatment: cisplatin at a dose killing half of control-siRNA cells; exact dose and duration not given. Read-out: 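Shift in cisplatin death relative to control siRNA, from -50 (all cells die) to +50 (no cells die); siRNAs harmful on their own scored 0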. Direction: two-siRNA summed score (-2 to +2): higher = both siRNAs protect from cisplatin killing; -2 means both sensitise; mean protection from cisplatin (shift in death): higher = protection from cisplatin killing. Rule for the call: 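siRNAs harmful alone (LDH or WST-1) get 0; others get +1 for less and -1 for more cisplatin killing; genes are active when the two siRNAs give the same sign, summing to ±2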. Calls: active = both siRNAs shift cisplatin killing the same way; inactive = no consistent shift, or siRNA harmful alone.
In all, the deposit lists about 23,000 reagents; this is an unselected part. Over the whole deposit, 455 (2%) were called active. 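Active includes both protection and sensitisation; some change values fall well beyond the stated -50 to +50 range.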 The numbers tell different reagents against one gene apart. Not all columns of the deposit are shown. The record does not give: the amount of reagent.

For RPL10L, what does the deposit list?
two-siRNA summed score (-2 to +2): 0; mean protection from cisplatin (shift in death) (%): 6.5; Outcome: inactive

With ST3GAL3, what does the deposit list?
two-siRNA summed score (-2 to +2): 0; mean protection from cisplatin (shift in death) (%): 2.2; Outcome: inactive

With DNHD1 #1, what was measured?
two-siRNA summed score (-2 to +2): 0; mean protection from cisplatin (shift in death) (%): -8; Outcome: inactive

What is on record for DNHD1 #2?
two-siRNA summed score (-2 to +2): 0; mean protection from cisplatin (shift in death) (%): -4.2; Outcome: inactive

Which result is listed for ELOC?
two-siRNA summed score (-2 to +2): 0; mean protection from cisplatin (shift in death) (%): 11.3; Outcome: inactive

With ST3GAL6, what was measured?
two-siRNA summed score (-2 to +2): 1; mean protection from cisplatin (shift in death) (%): 15; Outcome: inactive

With SOX3, what does the deposit list?
two-siRNA summed score (-2 to +2): 0; mean protection from cisplatin (shift in death) (%): 10.8; Outcome: inactive

What did the screen give for PPP1CC?
two-siRNA summed score (-2 to +2): -1; mean protection from cisplatin (shift in death) (%): -10.1; Outcome: inactive

What is on record for PTPRK?
two-siRNA summed score (-2 to +2): 0; mean protection from cisplatin (shift in death) (%): -3.9; Outcome: inactive

With NEK9, what was measured?
two-siRNA summed score (-2 to +2): 0; mean protection from cisplatin (shift in death) (%): -4.8; Outcome: inactive

Which result is listed for CBLL2?
two-siRNA summed score (-2 to +2): -1; mean protection from cisplatin (shift in death) (%): -2.4; Outcome: inactive

How did the screen score RNF181?
two-siRNA summed score (-2 to +2): 0; mean protection from cisplatin (shift in death) (%): 1.6; Outcome: inactive

What did the screen give for PPP1R14C?
two-siRNA summed score (-2 to +2): 0; mean protection from cisplatin (shift in death) (%): 8.2; Outcome: inactive

For LSG1, what does the deposit list?
two-siRNA summed score (-2 to +2): 0; mean protection from cisplatin (shift in death) (%): -4.7; Outcome: inactive

How did the screen score GUCA1C?
two-siRNA summed score (-2 to +2): 1; mean protection from cisplatin (shift in death) (%): 9.5; Outcome: inactive

With CEP295, what does the deposit list?
two-siRNA summed score (-2 to +2): 0; mean protection from cisplatin (shift in death) (%): -0.6; Outcome: inactive

With TMEM145, how do the results read?
two-siRNA summed score (-2 to +2): 0; mean protection from cisplatin (shift in death) (%): 1.8; Outcome: inactive

What is on record for TRAPPC9?
two-siRNA summed score (-2 to +2): 0; mean protection from cisplatin (shift in death) (%): -8.2; Outcome: inactive

How did the screen score GSTM3?
two-siRNA summed score (-2 to +2): 1; mean protection from cisplatin (shift in death) (%): 1.6; Outcome: inactive

With CPA3, what was measured?
two-siRNA summed score (-2 to +2): 0; mean protection from cisplatin (shift in death) (%): 4.8; Outcome: inactive

Which result is listed for ACTR8?
two-siRNA summed score (-2 to +2): 0; mean protection from cisplatin (shift in death) (%): -2.9; Outcome: inactive

With LOC139263, how do the results read?
two-siRNA summed score (-2 to +2): 0; mean protection from cisplatin (shift in death) (%): 0.1; Outcome: inactive

What did the screen give for MMP19?
two-siRNA summed score (-2 to +2): 0; mean protection from cisplatin (shift in death) (%): 0.3; Outcome: inactive

Which result is listed for LOC441993?
two-siRNA summed score (-2 to +2): 0; mean protection from cisplatin (shift in death) (%): 13; Outcome: inactive

What is on record for RHAG?
two-siRNA summed score (-2 to +2): -1; mean protection from cisplatin (shift in death) (%): -9.1; Outcome: inactive

Which result is listed for TENM2?
two-siRNA summed score (-2 to +2): 0; mean protection from cisplatin (shift in death) (%): -18; Outcome: inactive

Which result is listed for OTUD6A?
two-siRNA summed score (-2 to +2): 0; mean protection from cisplatin (shift in death) (%): 14.8; Outcome: inactive

For LOC145846, how do the results read?
two-siRNA summed score (-2 to +2): 1; mean protection from cisplatin (shift in death) (%): 13.5; Outcome: inactive

What is on record for LINC01879?
two-siRNA summed score (-2 to +2): 0; mean protection from cisplatin (shift in death) (%): -4; Outcome: inactive

What did the screen give for SNRPB?
two-siRNA summed score (-2 to +2): 0; mean protection from cisplatin (shift in death) (%): 15.5; Outcome: inactive

How did the screen score VCP?
two-siRNA summed score (-2 to +2): 0; mean protection from cisplatin (shift in death) (%): 0.5; Outcome: inactive

Ordered by “mean protection from cisplatin (shift in death) (%)” (low to high): some entries from above
NEK9 — two-siRNA summed score (-2 to +2) = 0; mean protection from cisplatin (shift in death) (%) = -4.8; Outcome = inactive
PTPRK — two-siRNA summed score (-2 to +2) = 0; mean protection from cisplatin (shift in death) (%) = -3.9; Outcome = inactive
CBLL2 — two-siRNA summed score (-2 to +2) = -1; mean protection from cisplatin (shift in death) (%) = -2.4; Outcome = inactive
